Data as given in PubChem BioAssay AID1159578 (Peter MacCallum Cancer Centre, 2015).
The whole screen tested about 18,000 reagents; below is a random part of them. About 1,030 of them (5.7%) count as active. 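Inactive calls also include pools with fewer than 3300 nuclei, whose migration was not assessed.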 Raw values vary from plate to plate and are shown uncorrected. Not all columns of the deposit are shown.

- Screen: 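siRNA pools altering how lymphatic endothelial cells close a scratch wound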 (primary screen)
- Cells: human lymphatic endothelial cells
- Knock-down reagent: siRNA pool against human genes, 40 nM
- Time to read-out: 48 h after transfection
- Read-out: 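Cells stained with dye and imaged after a scratch; covered wound area and nuclei counted, duplicates averaged, migration set against mock wells and turned into a robust z-score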
- Scale: migration robust z-score: higher = faster migration into the scratch; nuclei per well: higher = more cells in the well
- Hit rule: 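Migration changed when robust z exceeds 2 or falls below -2 and mean nuclei number is at least 3300; otherwise not called changed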
- Meaning of the calls: active = migration changed; inactive = no migration change, or too few cells

no.	gene	migration robust z-score	migration class with cell-count check	nuclei per well, duplicate mean	Call
1	WDR5B (WD repeat domain 5B)	-0.46	migration z between -2 and 2; enough cells	5091	inactive
2	FKBP1B (FKBP prolyl isomerase 1B)	-0.02	migration z between -2 and 2; enough cells	5456	inactive
3	MRPS2 (mitochondrial ribosomal protein S2)	0.02	migration z between -2 and 2; enough cells	4908	inactive
4	CHML (CHM like Rab escort protein)	-0.36	migration z between -2 and 2; enough cells	5290	inactive
5	GPRC5D (G protein-coupled receptor class C group 5 member D)	-1.22	migration z between -2 and 2; enough cells	6186	inactive
6	SNX32 (sorting nexin 32)	0.44	migration z between -2 and 2; enough cells	6524	inactive
7	PSMB7 (proteasome 20S subunit beta 7)	-0.88	migration z between -2 and 2; enough cells	5912	inactive
8	MAGED1 (MAGE family member D1)	1.09	migration z between -2 and 2; enough cells	5412	inactive
9	TRMT2A (tRNA methyltransferase 2A)	-1.14	migration z between -2 and 2; enough cells	6334	inactive
10	VDAC1 (voltage dependent anion channel 1)	0.57	migration z between -2 and 2; enough cells	5640	inactive
11	TRIM72 (tripartite motif containing 72)	1.04	migration z between -2 and 2; enough cells	4964	inactive
12	ARHGEF11 (Rho guanine nucleotide exchange factor 11)	-0.55	migration z between -2 and 2; enough cells	5648	inactive
13	SIGLEC10 (sialic acid binding Ig like lectin 10)	0.61	migration z between -2 and 2; enough cells	6230	inactive
14	ZFPM1 (zinc finger protein, FOG family member 1)	-2.06	migration z below -2; enough cells	4569	active
15	DOC2A (double C2 domain alpha)	-1.01	migration z between -2 and 2; enough cells	6307	inactive
16	AJAP1 (adherens junctions associated protein 1)	-1.64	migration z between -2 and 2; enough cells	6830	inactive
17	PRAMEF2 (PRAME family member 2)	1.45	migration z between -2 and 2; enough cells	5987	inactive
18	CRYBA2 (crystallin beta A2)	-0.6	migration z between -2 and 2; enough cells	4954	inactive
19	SHOX2 (SHOX homeobox 2)	-1.82	migration z between -2 and 2; enough cells	6574	inactive
20	OR6K3 (olfactory receptor family 6 subfamily K member 3)	-0.08	migration z between -2 and 2; enough cells	5898	inactive
21	CDYL2 (chromodomain Y like 2)	-0.34	migration z between -2 and 2; enough cells	5184	inactive
22	TMEM204 (transmembrane protein 204)	-1.24	migration z between -2 and 2; enough cells	3823	inactive
23	COPG2 (coat protein complex I subunit gamma 2)	-0.07	migration z between -2 and 2; enough cells	5730	inactive
24	SEL1L3 (SEL1L family member 3)	-0.11	migration z between -2 and 2; enough cells	6342	inactive
25	MYOC (myocilin)	1.08	migration z between -2 and 2; enough cells	5474	inactive
26	SRP19 (signal recognition particle 19)	0.68	migration z between -2 and 2; enough cells	7084	inactive
27	MED23 (mediator complex subunit 23)	0.05	migration z between -2 and 2; enough cells	5700	inactive
28	GJA4 (gap junction protein alpha 4)	-1.53	migration z between -2 and 2; enough cells	5522	inactive
29	TNK2 (tyrosine kinase non receptor 2)	-0.62	migration z between -2 and 2; enough cells	3839	inactive
30	RSRP1 (arginine and serine rich protein 1)	-0.24	migration z between -2 and 2; enough cells	5926	inactive
31	ABCB9 (ATP binding cassette subfamily B member 9)	0.76	migration z between -2 and 2; enough cells	5210	inactive
32	TMEM135 (transmembrane protein 135)	-0.29	migration z between -2 and 2; enough cells	6869	inactive
33	PIANP (PILR alpha associated neural protein)	0.5	migration z between -2 and 2; enough cells	5974	inactive
34	ZCCHC12 (zinc finger CCHC-type containing 12)	-0.2	migration z between -2 and 2; enough cells	7380	inactive
35	ANAPC1 (anaphase promoting complex subunit 1)	0.26	migration z between -2 and 2; enough cells	7401	inactive
36	DRC9 (dynein regulatory complex subunit 9)	-0.22	migration z between -2 and 2; enough cells	5969	inactive
37	DAPK3 (death associated protein kinase 3)	-0.52	migration z between -2 and 2; enough cells	4579	inactive
38	KIRREL3 (kirre like nephrin family adhesion molecule 3)	1.38	migration z between -2 and 2; enough cells	5326	inactive
39	ADAM20 (ADAM metallopeptidase domain 20)	-0.08	migration z between -2 and 2; enough cells	6317	inactive
40	LIME1 (Lck interacting transmembrane adaptor 1)	-0.11	migration z between -2 and 2; enough cells	5791	inactive
41	ZNF334 (zinc finger protein 334)	-0.16	migration z between -2 and 2; enough cells	6407	inactive
42	LYZ (lysozyme)	1.12	migration z between -2 and 2; enough cells	3758	inactive
43	SERF2 (small EDRK-rich factor 2)	0.05	migration z between -2 and 2; enough cells	5100	inactive
44	MILR1 (mast cell immunoglobulin like receptor 1)	0.5	migration z between -2 and 2; enough cells	6652	inactive
45	ZNF346 (zinc finger protein 346)	1.14	migration z between -2 and 2; enough cells	6058	inactive

Next part, starting with the last 6 of the part before.
no.	gene	migration robust z-score	migration class with cell-count check	nuclei per well, duplicate mean	Call
40	LIME1 (Lck interacting transmembrane adaptor 1)	-0.11	migration z between -2 and 2; enough cells	5791	inactive
41	ZNF334 (zinc finger protein 334)	-0.16	migration z between -2 and 2; enough cells	6407	inactive
42	LYZ (lysozyme)	1.12	migration z between -2 and 2; enough cells	3758	inactive
43	SERF2 (small EDRK-rich factor 2)	0.05	migration z between -2 and 2; enough cells	5100	inactive
44	MILR1 (mast cell immunoglobulin like receptor 1)	0.5	migration z between -2 and 2; enough cells	6652	inactive
45	ZNF346 (zinc finger protein 346)	1.14	migration z between -2 and 2; enough cells	6058	inactive
46	VPS36 (vacuolar protein sorting 36 homolog)	0.94	migration z between -2 and 2; enough cells	6406	inactive
47	RIPK4 (receptor interacting serine/threonine kinase 4)	-1.98	migration z between -2 and 2; enough cells	5566	inactive
48	CPE (carboxypeptidase E)	0.86	migration z between -2 and 2; enough cells	6980	inactive
49	PIP4K2A (phosphatidylinositol-5-phosphate 4-kinase type 2 alpha)	-0.47	migration z between -2 and 2; enough cells	4714	inactive
50	ARC (activity regulated cytoskeleton associated protein)	1.38	migration z between -2 and 2; enough cells	3758	inactive
51	SREBF2 (sterol regulatory element binding transcription factor 2)	0.18	migration z between -2 and 2; enough cells	7003	inactive
52	PTRH1 (peptidyl-tRNA hydrolase 1 homolog)	1.17	migration z between -2 and 2; enough cells	6329	inactive
53	FOLH1B (folate hydrolase 1B (pseudogene))	0.54	migration z between -2 and 2; enough cells	5384	inactive
54	CORT (cortistatin)	0.64	migration z between -2 and 2; enough cells	5408	inactive
55	PPP1CA (protein phosphatase 1 catalytic subunit alpha)	-2.44	migration z below -2; enough cells	4046	active
56	PRRG3 (proline rich and Gla domain 3)	-0.48	migration z between -2 and 2; enough cells	4895	inactive
57	GORAB (golgin, RAB6 interacting)	-0.3	migration z between -2 and 2; enough cells	5184	inactive
58	GAGE2E (G antigen 2E)	0.72	migration z between -2 and 2; enough cells	5152	inactive
59	LAMA2 (laminin subunit alpha 2)	0.22	migration z between -2 and 2; enough cells	5866	inactive
60	DEFA5 (defensin alpha 5)	0.41	migration z between -2 and 2; enough cells	5799	inactive
61	POGLUT2 (protein O-glucosyltransferase 2)	-1.17	migration z between -2 and 2; enough cells	5129	inactive
62	C6orf89 (chromosome 6 open reading frame 89)	2.02	migration z above 2; enough cells	6159	active
63	DNAJB3P (DnaJ heat shock protein family (Hsp40) member B3, pseudogene)	-0.12	migration z between -2 and 2; enough cells	6296	inactive
64	PTER (phosphotriesterase related)	0.13	migration z between -2 and 2; enough cells	6116	inactive
65	SHANK1 (SH3 and multiple ankyrin repeat domains 1)	-0.16	migration z between -2 and 2; enough cells	6318	inactive
66	TFPT (TCF3 fusion partner)	0.92	migration z between -2 and 2; enough cells	5892	inactive
67	COL5A3 (collagen type V alpha 3 chain)	1.01	migration z between -2 and 2; enough cells	6836	inactive
68	UQCC4 (ubiquinol-cytochrome c reductase complex assembly factor 4)	-0.52	migration z between -2 and 2; enough cells	5158	inactive
69	PELI1 (pellino E3 ubiquitin protein ligase 1)	-0.11	migration z between -2 and 2; enough cells	6051	inactive
70	CALHM4 (calcium homeostasis modulator family member 4)	-0.24	migration z between -2 and 2; enough cells	4108	inactive
71	PTPRA (protein tyrosine phosphatase receptor type A)	2.36	migration z above 2; enough cells	4424	active
72	ADORA2A (adenosine A2a receptor)	0.34	migration z between -2 and 2; enough cells	5756	inactive
73	MRPL1 (mitochondrial ribosomal protein L1)	-0.43	migration z between -2 and 2; enough cells	5700	inactive
